Experimental data: the supplement of paper PMC10735217
Where “and” joins values, the source holds several entries; their conditions need not be identical. Identical values can stand only once. Some of the results follow. Repeats in this data set agree poorly, so a single value says little.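 In a drug-repurposing library screen, luminescence reads luciferase driven by eight TEAD-binding elements, stably integrated into human kidney-derived cells. Compounds scoring over five robust Z scores above the plate mean are called hits.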

Test system: HEK293A TEAD-LUC reporter
Assay: TEAD-luciferase reporter activity (YAP activation), robust Z score vs plate; higher = stronger YAP/TEAD activation
Conditions: 24 h

C#CCOc1ccccc1OCC(O)CNC(C)(C)C (stereo unspecified)
TEAD-luciferase reporter activity (compound concentration: 200 nM): inactive: -0.701
TEAD-luciferase reporter activity (compound concentration: 2 uM): inactive: -0.71
TEAD-luciferase reporter activity (compound concentration: 10 uM): inactive: -1.06

CC(=O)c1cc(Nc2cc(C)nc(N)n2)cc(C(C)=O)c1
TEAD-luciferase reporter activity (compound concentration: 200 nM): inactive: -1.62
TEAD-luciferase reporter activity (compound concentration: 2 uM): inactive: -0.673
TEAD-luciferase reporter activity (compound concentration: 10 uM): inactive: 2.75

CN(C)CC1CCC(CNC(=N)c2ccc(CC(NC(=O)C(Cc3ccccc3)NS(=O)(=O)c3ccc4ccccc4c3)C(=O)N3CCCC3)cc2)CC1 (stereo unspecified)
TEAD-luciferase reporter activity (compound concentration: 200 nM): inactive: 0.417
TEAD-luciferase reporter activity (compound concentration: 10 uM): inactive: 0.00759

CC(C)c1cc2[nH]c(=O)n(NS(C)(=O)=O)c(=O)c2cc1-c1ccnn1C [Selurampanel]
TEAD-luciferase reporter activity (compound concentration: 200 nM): inactive: -1.69
TEAD-luciferase reporter activity (compound concentration: 2 uM): inactive: 0.537
TEAD-luciferase reporter activity (compound concentration: 10 uM): inactive: 0.207

O=C(O)CC1CCc2c1[nH]c1ccc(OCc3ccc(C4CCCC4)c(C(F)(F)F)c3)cc21 (stereo unspecified)
TEAD-luciferase reporter activity (compound concentration: 200 nM): inactive: -0.895
TEAD-luciferase reporter activity (compound concentration: 2 uM): inactive: -0.396 and inactive: -0.528
TEAD-luciferase reporter activity (compound concentration: 10 uM): inactive: 0.57

CCCCCCCCCCCC(=O)OCN1C(=O)CCc2ccc(OCCCCN3CCN(c4cccc(Cl)c4Cl)CC3)cc21 [Aripiprazole lauroxil]
TEAD-luciferase reporter activity (compound concentration: 200 nM): inactive: -0.894
TEAD-luciferase reporter activity (compound concentration: 2 uM): inactive: -1.17
TEAD-luciferase reporter activity (compound concentration: 10 uM): inactive: -0.995

CC(C)(C)NCC(O)COc1cccc2c1C(=O)OC2 (racemic)
TEAD-luciferase reporter activity (compound concentration: 200 nM): inactive: -1.38
TEAD-luciferase reporter activity (compound concentration: 2 uM): inactive: 0.267
TEAD-luciferase reporter activity (compound concentration: 10 uM): inactive: 4.9

Fc1ccc(Oc2cc(Sc3ccccn3)cnc2Nc2ccc(-c3nnn[nH]3)cn2)cc1
TEAD-luciferase reporter activity (compound concentration: 200 nM): inactive: -0.228
TEAD-luciferase reporter activity (compound concentration: 10 uM): inactive: 0.126

CC(C)c1onc(-c2c(Cl)cccc2Cl)c1COc1ccc(/C=C/c2cccc(C(=O)O)c2)c(Cl)c1
TEAD-luciferase reporter activity (compound concentration: 200 nM): inactive: -0.962
TEAD-luciferase reporter activity (compound concentration: 2 uM): inactive: 2.87
TEAD-luciferase reporter activity (compound concentration: 10 uM): inactive: -1.16

[Cl][K] [Potassium chloride]
TEAD-luciferase reporter activity (compound concentration: 200 nM): inactive: -1.21
TEAD-luciferase reporter activity (compound concentration: 2 uM): inactive: 0.102
TEAD-luciferase reporter activity (compound concentration: 10 uM): inactive: 0.913

c1ccc(-c2ccc(C(c3ccccc3)n3ccnc3)cc2)cc1 (stereo unspecified)
TEAD-luciferase reporter activity (compound concentration: 200 nM): inactive: -0.268
TEAD-luciferase reporter activity (compound concentration: 2 uM): inactive: -1.1
TEAD-luciferase reporter activity (compound concentration: 10 uM): inactive: -0.907

C=Cc1cccc[n+]1[O-]
TEAD-luciferase reporter activity (compound concentration: 200 nM): inactive: -0.639
TEAD-luciferase reporter activity (compound concentration: 2 uM): inactive: -0.604
TEAD-luciferase reporter activity (compound concentration: 10 uM): inactive: -0.942

CC(C)(C)C(=O)NCCCC(=O)O [pivagabine]
TEAD-luciferase reporter activity (compound concentration: 200 nM): inactive: 3.17
TEAD-luciferase reporter activity (compound concentration: 2 uM): inactive: 3.49
TEAD-luciferase reporter activity (compound concentration: 10 uM): active: 5.87

CC[C@H](C)[C@@H]1C(=O)N[C@H](C2Cc3ccccc3C2)C(=O)N1[C@H](C(=O)N1CCOCC1)c1ccc(C)nc1C [epelsiban]
TEAD-luciferase reporter activity (compound concentration: 200 nM): inactive: -1.1
TEAD-luciferase reporter activity (compound concentration: 2 uM): inactive: 0.0385
TEAD-luciferase reporter activity (compound concentration: 10 uM): inactive: -0.929

COCC(O)CN1CCN(C(C)c2ccc(Cl)cc2)CC1 (stereo unspecified)
TEAD-luciferase reporter activity (compound concentration: 200 nM): inactive: -0.872
TEAD-luciferase reporter activity (compound concentration: 2 uM): inactive: -1.19
TEAD-luciferase reporter activity (compound concentration: 10 uM): inactive: 0.28

COCCOC(=O)N1CCN(S(=O)(=O)c2cc(F)c(Oc3ccc(Cl)cc3)c(F)c2)[C@@H](C(=O)NO)C1
TEAD-luciferase reporter activity (compound concentration: 200 nM): inactive: 0.599
TEAD-luciferase reporter activity (compound concentration: 2 uM): inactive: 2.3
TEAD-luciferase reporter activity (compound concentration: 10 uM): inactive: 1.95

COc1ccc2c(c1)c(CC(=O)OC/C=C(\C)CC/C=C(\C)CCC=C(C)C)c(C)n2C(=O)c1ccc(Cl)cc1 [Indometacin farnesil]
TEAD-luciferase reporter activity (compound concentration: 200 nM): inactive: -2.82
TEAD-luciferase reporter activity (compound concentration: 2 uM): inactive: -1.16
TEAD-luciferase reporter activity (compound concentration: 10 uM): inactive: -0.961

CCCCCS(=O)(=O)NC(=O)c1ccc2nc(C)n(Cc3ccc(Cl)cc3Cl)c2c1
TEAD-luciferase reporter activity (compound concentration: 200 nM): inactive: -0.805
TEAD-luciferase reporter activity (compound concentration: 2 uM): inactive: 1.53
TEAD-luciferase reporter activity (compound concentration: 10 uM): inactive: 0.608

O=C(CS(=O)Cc1ccco1)NCCCOc1cccc(CN2CCCCC2)c1 (stereo unspecified)
TEAD-luciferase reporter activity (compound concentration: 200 nM): inactive: -1.15
TEAD-luciferase reporter activity (compound concentration: 2 uM): inactive: -0.444
TEAD-luciferase reporter activity (compound concentration: 10 uM): inactive: 1.37

CC(C)(O)CC(=O)O [Calcium beta-hydroxy-beta-methylbutyrate]
TEAD-luciferase reporter activity (compound concentration: 200 nM): inactive: -0.121
TEAD-luciferase reporter activity (compound concentration: 2 uM): inactive: -0.84
TEAD-luciferase reporter activity (compound concentration: 10 uM): inactive: -0.0337

OCC1OCC(O)C(O)[C@@H]1O (stereo partly specified)
TEAD-luciferase reporter activity (compound concentration: 200 nM): inactive: -1.15
TEAD-luciferase reporter activity (compound concentration: 2 uM): inactive: -1.63
TEAD-luciferase reporter activity (compound concentration: 10 uM): inactive: -0.0534

C[N+]1(c2cccc(C(F)(F)F)c2)CCC(N)=N1 (stereo unspecified)
TEAD-luciferase reporter activity (compound concentration: 200 nM): inactive: -1.21
TEAD-luciferase reporter activity (compound concentration: 2 uM): inactive: 4.23
TEAD-luciferase reporter activity (compound concentration: 10 uM): inactive: 0.224

O=C(O)c1cn(C2CC2)c2cc(-n3cccc3)c(F)cc2c1=O
TEAD-luciferase reporter activity (compound concentration: 200 nM): inactive: -0.844
TEAD-luciferase reporter activity (compound concentration: 2 uM): inactive: -1.16
TEAD-luciferase reporter activity (compound concentration: 10 uM): inactive: 0.993

CCN(CC)CCc1nc(-c2ccccc2)no1
TEAD-luciferase reporter activity (compound concentration: 200 nM): inactive: 0.642
TEAD-luciferase reporter activity (compound concentration: 2 uM): inactive: -0.698
TEAD-luciferase reporter activity (compound concentration: 10 uM): inactive: -1.28

CO[C@@H]1[C@@H](O[C@@H]2O[C@H](C)[C@@H](O[C@H]3C[C@@](C)(O)[C@@H](OC(=O)CC(C)C)[C@H](C)O3)[C@H](N(C)C)[C@H]2O)[C@@H](CC=O)C[C@@H](C)[C@@H](O)/C=C/C=C/C[C@@H](C)OC(=O)C[C@H]1OC(C)=O [Josamycin]
TEAD-luciferase reporter activity (compound concentration: 200 nM): inactive: 3.81
TEAD-luciferase reporter activity (compound concentration: 2 uM): inactive: -0.675
TEAD-luciferase reporter activity (compound concentration: 10 uM): inactive: 2.58

CC(C)C[C@H](N[C@@H](Cc1cncn1Cc1cc(Cl)cc(Cl)c1)C(=O)O)C(=O)O
TEAD-luciferase reporter activity (compound concentration: 200 nM): inactive: -1.01
TEAD-luciferase reporter activity (compound concentration: 2 uM): inactive: -1.1
TEAD-luciferase reporter activity (compound concentration: 10 uM): inactive: 0.624
